Assay [1] deals with human IgE CH3-CH4-M1′/Fc fusion protein (human). The assay can be described thus: surface plasmon resonance (Table 1). In general terms: In SPR one partner is held on a chip, and binding of the other changes the refractive index at the surface.
Assay [2] addresses T1, M1′ peptide 7 (human).
T1 sequence (peptide): GQQQGLPRAAGGSVP
Put plainly: ELISA on coated antigen, relative OD450/650. (In general: ELISA stands for enzyme-linked immunosorbent assay.)

For assay [3], the target named is T2, M1' peptide 13.
T2 sequence (peptide): PPELDVCVEEAEGEA
The assay can be described thus: ELISA on coated antigen, relative OD450/650.

Assay [4] deals with T3, M1' peptide 11.
T3 sequence (peptide): CGAGRADWPGPPELD
Put plainly: ELISA on coated antigen, relative OD450/650.

The target of assay [5] is T4, M1′ peptide 5 (human).
T4 sequence (peptide): RAPDRVLCHSGQQQG
Put plainly: ELISA on coated antigen, relative OD450/650.

The target in assay [6] is T5, M1' peptide 2.
T5 sequence (peptide): TVQRAVSVNPGLAGG
The assay can be described thus: ELISA on coated antigen, relative OD450/650.

Assay [7] deals with T6, M1' peptide 15.
T6 sequence (peptide): AEGEAPWTWTGLCIF
The assay can be described thus: ELISA on coated antigen, relative OD450/650.

In assay [8] the target is T7, M1' peptide 14.
T7 sequence (peptide): VCVEEAEGEAPWTWT
The assay can be described thus: ELISA on coated antigen, relative OD450/650.

Assay [9] concerns the target human IgE CH3-CH4-M1′/Fc fusion protein (human). Put plainly: ELISA on coated antigen, relative OD450/650.
Assay [10] addresses T8, M1' peptide 1.
T8 sequence (peptide): ASPSQTVQRAVSVNP
The assay can be described thus: ELISA on coated antigen, relative OD450/650.

For assay [11], the target named is T9, M1' peptide 12.
T9 sequence (peptide): ADWPGPPELDVCVEE
Put plainly: ELISA on coated antigen, relative OD450/650.

Assay [12] has as its target T10, M1' peptide 9.
T10 sequence (peptide): GGSVPHPRCHCGAGR
The assay can be described thus: ELISA on coated antigen, relative OD450/650.

For assay [13], the target named is T11, M1' peptide 3.
T11 sequence (peptide): GLAGGSAQSQRAPDR
The assay can be described thus: ELISA on coated antigen, relative OD450/650.

Assay [14] has as its target T12, M1′ peptide 8 (human).
T12 sequence (peptide): PRAAGGSVPHPRCH
Put plainly: ELISA on coated antigen, relative OD450/650.

For assay [15], the target named is T13, M1' peptide 6.
T13 sequence (peptide): VLCHSGQQQGLPRAA
Put plainly: ELISA on coated antigen, relative OD450/650.

Assay [16] deals with T14, M1' peptide 10.
T14 sequence (peptide): HPRCHCGAGRADWPG
The assay can be described thus: ELISA on coated antigen, relative OD450/650.

Assay [17] has as its target T15, M1′ peptide 4 (human).
T15 sequence (peptide): SAQSQRAPDRVLCHS
Put plainly: ELISA on coated antigen, relative OD450/650.

Data on six molecules can be found in US20120149881A1.

No constants are given. Whether binding was seen depends on the method and setting. Some binding calls cover weakened binding; strength is not graded here.

B1: humanized anti-IgE/M1′ antibody 47H4.v1 (antibody, V domains shown)
VH: EVQLVESGGGLVQPGGSLRLSCAASGFTFSDYGMAWVRQAPGKGLEWVAFISDLAYTIYYADTVTGRFTISRDNSKNTLYLQMNSLRAEDTAVYYCARDNWDAMDYWGQGTLVTVSS
VL: DIQMTQSPSSLSASVGDRVTITCRSSQSLVHNNGNTYLHWYQQKPGKAPKLLIYKVSNRFSGVPSRFSGSGSGTDFTLTISSLQPEDFATYYCSQNTLVPWTFGQGTKVEIKR
Turning to B1, the binding entry in assay [1] was “binds”.

B2: humanized anti-IgE/M1′ antibody 7A6.v1 (antibody, V domains shown)
VH: EVQLVESGGGLVQPGGSLRLSCAASGYTFIDYEMHWVRQAPGKGLEWVGAIDPETGTTAYNQKFKGRFTISADTSKNTAYLQMNSLRAEDTAVYYCTRLRPHYDYDNAMDSWGQGTLVTVSS
VL: DIQMTQSPSSLSASVGDRVTITCKSSQTLLYSTNQKNYLAWYQQKPGKAPKLLIYWASTRESGVPSRFSGSGSGTDFTLTISSLQPEDFATYYCQQYYSYPYTFGQGTKVEIKR
Turning to B2, the binding entry in assay [1] is given as “binds”.

B3: humanized anti-IgE/M1′ antibody 26A11.v1 (antibody, V domains shown)
VH: EVQLVESGGGLVQPGGSLRLSCAASGYTFTDYYMMWVRQAPGKGLEWVGDINPNNYDTSYNQKFKGRFTISADTSKNTAYLQMNSLRAEDTAVYYCASKAYWGQGTLVTVSS
VL: DIQMTQSPSSLSASVGDRVTITCRSSQDISNSLNWYQQKPGKAPKLLIYSTSRLHSGVPSRFSGSGSGTDFTLTISSLQPEDFATYYCQQGHTLPWTFGQGTKVEIKR
As to B3, the binding entry in assay [1] was “binds”.

B4: murine anti-IgE/M1′ antibody 47H4 (antibody, V domains shown)
VH: EVKLVESGGGLVQPGGSRKLSCAASGFTFSDYGMAWVRQAPGKGPEWVAFISDLAYTIYYADTVTGRFTISRENAKNTLYLEMSSLRSEDTALYYCARDNWDAMDYWGQGTSVTVSS
VL: DIVLTQTPLSLPVSLGDQASISCRSSQSLVHNNGNTYLHWYLQKPGQSPKLLIYKVSNRFSGVPDRFSGSGSGTDFTLKISRLEAEDLGVYFCSQNTLVPWTFGGGTKVEIKR
Regarding B4, the binding entry in [2], in assay [3], in assay [4], in assay [5], in assay [6] and in assay [7] was “no binding” throughout. In addition, the binding result in assay [8] is listed as “no binding”; in [9], “binds”; in assay [10], “no binding”; in assay [11], “no binding”; in assay [12] it was “no binding”; in [13], “no binding”. The binding entry in assay [14], in [15] and in assay [16] was “no binding” in each case.

B5: murine anti-IgE/M1′ antibody 26A11 (antibody, V domains shown)
VH: EVQLQQSGPELVKPGASVKMSCKASGYTFTDYYMMWVKQSHGKSLEWIGDINPNNYDTSYNQKFKGKATLTVDKSSSTAYIQLNSLTSEDSAVYYCASKAYWGQGTLVTVSA
VL: DIQMTQTTSSLSASLGDRVTITCRSSQDISNSLNWYQQKPDGPVKLLIYSTSRLHSGVPSRFSGSGSGTDYSLTISNLEQEDLATYFCQQGHTLPWTFGGGTKVEIKR
On to B5, for which the binding entry in [3], in assay [4], in [5], in assay [6], in [7] and in assay [8] was “no binding” in each case. Further, the binding entry in assay [9] is “binds”; in assay [10], “no binding”; in [12], “no binding”; in [13], “no binding”; in assay [17], “no binding”; in assay [15], “no binding”. The binding result in assay [16] is “no binding”.

B6: murine anti-IgE/M1′ antibody 7A6 (antibody, V domains shown)
VH: QVQLQQSGAELVRPGASVTLSCKASGYTFIDYEMHWVKQTPVHGLEWIGAIDPETGTTAYNQKFKGKATLTAAKSSSTAYMELRSLTSEDSAVYYCTRLRPHYDYDNAMDSWGQGTTLTVSS
VL: DIVMSQSPSSLTVSVGEKVTLSCKSSQTLLYSTNQKNYLAWYQQKPGQSPKLLIYWASTRESGVPDRFTGSGSGTDFTLTISSVKAEDLAVYYCQQYYSYPYTFGGGTKVEIKR
Turning to B6, the binding result in [2], in [3], in [4], in assay [6], in [7] and in assay [8] was “no binding” throughout. Besides, the binding result is given as “binds” in assay [9]; “no binding” in assay [10]; “no binding” in assay [11]; “no binding” in assay [12]; “no binding” in assay [13]; “no binding” in [14]. Besides, the binding entry in assay [15] and in assay [16] was “no binding” throughout.
